In the supplement of paper PMC12889115:
The list shows a part of the results. These are raw signals, not scaled to a control.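 In the initial screen, polymyxin B was used at a concentration that permeabilizes Salmonella's outer membrane but not its inner membrane. Maximum growth was set by DMSO wells with or without polymyxin B. Since plates varied, data were ranked per plate, and compounds giving the lowest OD600 advanced as hits.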

Test system: Salmonella enterica serovar Typhimurium SL1344
Experiment: bacterial growth OD600 after 18 h with compound and polymyxin B; higher = more bacterial growth (less inhibition)
Conditions: 50 µM, Mueller-Hinton broth

Structure (SMILES)	bacterial growth OD600 (polymyxin B 0.75 µg/mL)	bacterial growth OD600 (polymyxin B 1 µg/mL)
COCC(=O)Nc1cc(C(=O)NC2CCc3ccccc32)cc2ncn(CCc3ccccc3)c12 (centres undefined)	0.832	
O=C(NCC[C@@H]1CCCN2CCCC[C@H]12)c1cn(Cc2ccccc2F)nn1		0.986
COCC(=O)Nc1cc(C(=O)NCc2cc(OC)ccc2OC)c2c(c1)nc(C1CCC1)n2C	0.914	
O=C(NCCn1cccn1)c1coc(COc2cccc(F)c2)n1	0.859	
O=C(CCc1ccc2c(c1)OCO2)N1CCOc2ccc(CN3CCc4ccccc4C3)cc2C1	0.803	
CCOC(=O)C1(Cc2ccc(F)cc2)CCCN(C(=O)c2cccc(OC)c2)C1 (centres undefined)		0.631
Cc1ccc(Oc2ncccc2CNC(=O)[C@H]2C[C@@H]3C=C[C@H]2C3)cn1		0.893
O=C(NCc1cccnc1)c1ccc(N2CCC(NCC(c3ccccc3)c3ccccc3)CC2)cc1	0.717	
COc1ccc(OCc2nc(C(=O)N(C)Cc3nc(C)cs3)co2)cc1		0.899

Already shown: two of the compounds above.
Structure (SMILES)	bacterial growth OD600 (polymyxin B 0.75 µg/mL)	bacterial growth OD600 (polymyxin B 1 µg/mL)
O=C(NCC[C@@H]1CCCN2CCCC[C@H]12)c1cn(Cc2ccccc2F)nn1		0.986
COCC(=O)Nc1cc(C(=O)NCc2cc(OC)ccc2OC)c2c(c1)nc(C1CCC1)n2C	0.914	
